Experimental data from publication PMC9054788.

Molecular target: T1, Midkine (UniProt P21741)
T1 sequence: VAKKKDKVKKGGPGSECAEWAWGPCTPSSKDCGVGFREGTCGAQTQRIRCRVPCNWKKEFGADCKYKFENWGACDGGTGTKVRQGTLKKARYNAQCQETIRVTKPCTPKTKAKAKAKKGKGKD
Experiment: affinity purification with mass spectrometry; tandem affinity purification of MDK-associated protein complexes from HEK293T cells (legend: HEK293A), MDK as bait

- binding: binds
Molecule: MARK (human (endogenous in HEK293T))

- binding: binds
B1: UBE2O (protein, UniProt Q9C0C9 1-1292)
chain: MADPAAPTPAAPAPAQAPAPAPEAVPAPAAAPVPAPAPASDSASGPSSDSGPEAGSQRLLFSHDLVSGRYRGSVHFGLVRLIHGEDSDSEGEEEGRGSSGCSEAGGAGHEEGRASPLRRGYVRVQWYPEGVKQHVKETKLKLEDRSVVPRDVVRHMRSTDSQCGTVIDVNIDCAVKLIGTNCIIYPVNSKDLQHIWPFMYGDYIAYDCWLGKVYDLKNQIILKLSNGARCSMNTEDGAKLYDVCPHVSDSGLFFDDSYGFYPGQVLIGPAKIFSSVQWLSGVKPVLSTKSKFRVVVEEVQVVELKVTWITKSFCPGGTDSVSPPPSVITQENLGRVKRLGCFDHAQRQLGERCLYVFPAKVEPAKIAWECPEKNCAQGEGSMAKKVKRLLKKQVVRIMSCSPDTQCSRDHSMEDPDKKGESKTKSEAESASPEETPDGSASPVEMQDEGAEEPHEAGEQLPPFLLKEGRDDRLHSAEQDADDEAADDTDDTSSVTSSASSTTSSQSGSGTSRKKSIPLSIKNLKRKHKRKKNKITRDFKPGDRVAVEVVTTMTSADVMWQDGSVECNIRSNDLFPVHHLDNNEFCPGDFVVDKRVQSCPDPAVYGVVQSGDHIGRTCMVKWFKLRPSGDDVELIGEEEDVSVYDIADHPDFRFRTTDIVIRIGNTEDGAPHKEDEPSVGQVARVDVSSKVEVVWADNSKTIILPQHLYNIESEIEESDYDSVEGSTSGASSDEWEDDSDSWETDNGLVEDEHPKIEEPPIPPLEQPVAPEDKGVVISEEAATAAVQGAVAMAAPMAGLMEKAGKDGPPKSFRELKEAIKILESLKNMTVEQLLTGSPTSPTVEPEKPTREKKFLDDIKKLQENLKKTLDNVAIVEEEKMEAVPDVERKEDKPEGQSPVKAEWPSETPVLCQQCGGKPGVTFTSAKGEVFSVLEFAPSNHSFKKIEFQPPEAKKFFSTVRKEMALLATSLPEGIMVKTFEDRMDLFSALIKGPTRTPYEDGLYLFDIQLPNIYPAVPPHFCYLSQCSGRLNPNLYDNGKVCVSLLGTWIGKGTERWTSKSSLLQVLISIQGLILVNEPYYNEAGFDSDRGLQEGYENSRCYNEMALIRVVQSMTQLVRRPPEVFEQEIRQHFSTGGWRLVNRIESWLETHALLEKAQALPNGVPKASSSPEPPAVAELSDSGQQEPEDGGPAPGEASQGSDSEGGAQGLASASRDHTDQTSETAPDASVPPSVKPKKRRKSYRSFLPEKSGYPDIGFPLFPLSKGFIKSIRGVLTQFRAALLEAGMPECTEDK

These are yes or no findings as the source states them, for the method shown. Binding seen in cells or lysates may run through a third protein. Here binding means that the protein was enriched with, or labelled near, the bait; the list need not be complete. One block for each molecule: values may come before it.
